# In the supplement of paper PMC9454738:
# Where a name gives a salt, the structure may show the parent alone. ± gives the standard deviation of the averaged measurements. The list shows a part of the results. Repeats in this data set agree poorly, so a single value says little.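 Test systems: triple-negative MDA-MB-231 breast cancer cells and their brain-metastatic MDA-MB-231BRM derivative, each stably carrying empty vector, full-length GLI1 or truncated tGLI1. Viability after 48 h was read by CellTiter-Blue and expressed against 1% DMSO vehicle. A compound was tGLI1-selective if it lowered viability 20% more in tGLI1 cells than in vector and GLI1 cells.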
# Assays:
# Assay in all cases: cell viability relative to vehicle (DMSO) control (fraction); higher = more viable cells (less growth inhibition)
# Conditions in all cases: treatment time 48 h
# [1] = system: MDA-MB-231 GLI1
# [2] = system: MDA-MB-231 Vector
# [3] = system: MDA-MB-231 tGLI1
# [4] = system: MDA-MB-231BRM GLI1
# [5] = system: MDA-MB-231BRM Vector
# [6] = system: MDA-MB-231BRM tGLI1
Structure (SMILES),cell viability ([1]; 0.05 µM),cell viability ([1]; 0.5 µM),cell viability ([1]; 5 µM),cell viability ([2]; 0.05 µM),cell viability ([2]; 0.5 µM),cell viability ([2]; 5 µM),cell viability ([3]; 0.05 µM),cell viability ([3]; 0.5 µM),cell viability ([3]; 5 µM),cell viability ([4]; 0.05 µM),cell viability ([4]; 0.5 µM),cell viability ([4]; 5 µM),cell viability ([5]; 0.05 µM),cell viability ([5]; 0.5 µM),cell viability ([5]; 5 µM),cell viability ([6]; 0.05 µM),cell viability ([6]; 0.5 µM),cell viability ([6]; 5 µM)
CN1CCN(Cc2ccc(-c3cnc4[nH]cc(-c5ccc6[nH]ccc6c5)c4c3)cc2)CC1,1.11,1.58,1.07,0.914,1.06,1.32,1.13,1.11,1.24,1.11,0.972,0.916,1.07,1.07,0.891,1.14,0.967,0.876
C=CC(=O)Nc1cccc(Nc2nc(Nc3ccc(NC4CN(CCF)C4)cc3OC)ncc2C(F)(F)F)c1,1.13,1.59,0.741,1.19,1.35,0.519,0.955,1.52,0.713,1.02,0.969,0.942,1.01,1.04,0.955,0.97,0.948,0.901
CN1CCC(COc2cnc(-c3cccc(Cn4nc(-c5cccc(C#N)c5)ccc4=O)c3)nc2)CC1,1.3,1.72,1.31,1.47,1.53,1.71,1.31,1.52,1.7,1.06,0.954,0.982,1.01,1.04,1,0.982,1.02,0.968
COc1ncc(-c2ccc3nccc(-c4ccnnc4)c3c2)cc1NS(=O)(=O)c1ccc(F)cc1F,0.669,0.392,0.262,0.612,0.475,0.448,0.638,0.375,0.307,0.986,1.02,0.984,1.02,1.04,0.939,0.99,0.952,0.876
CC(C)(C)Cn1c(N)nc2ccc(-c3[nH]c(C(C)(C)C)nc3-c3ccc(F)cc3)nc21,1.29,1.2,1.38,1.7,0.828,1.01,0.969,1.07,0.535,0.792,0.566,0.717,0.697,1.09,0.505,0.915,0.689,0.688
CC[C@@H]1C(=O)N(C)c2cnc(Nc3ccc(C(=O)NC4CCN(C)CC4)cc3OC)nc2N1C1CCCC1,0.254,0.352,0.0913,0.341,0.31,0.171,0.212,0.287,0.066,1.13,1.01,0.889,1.05,1.02,0.843,1.04,0.942,0.733
CC(C)C[C@H](NC(=O)[C@H](Cc1ccccc1)C[C@@H](O)[C@H](Cc1ccccc1)NC(=O)OC(C)(C)C)C(=O)N[C@@H](Cc1ccccc1)C(N)=O,2.17,3.04,1.91,1.2,1.29,1.33,1.22,1.42,1.42,0.827,0.813,0.688,0.872,0.828,0.683,1.18,1.07,1.09
S=C(NCc1ccc2c(c1)OCO2)N1CCN(c2ncnc3c2oc2ccccc23)CC1 [Amuvatinib (MP-470)],0.698,0.798,1.1,0.862,0.612,0.921,0.856,1.04,0.896,1.22,1.14,0.951,0.784,0.958,0.998,1.05,1.17,0.816
Cc1c(F)cc(C(=O)NC2CC2)cc1-c1ccc(C(=O)NCC(C)(C)C)cn1,1.36,2,1.25,1.21,1.44,1.36,1.39,1.59,1.39,1.06,0.951,0.951,1.16,1.06,0.965,0.964,0.984,0.965
CC(C)OC(=O)C(C(=O)OC(C)C)=C1SC=CS1 [Malotilate],1.48,0.984,1.18,1.67,1.25,1.18,1.33,1.04,1.12,0.987,1.08,0.973,0.978,1.03,1.02,1.05,1.01,1.05
COc1ccc(S(=O)(=O)N(CCO)c2ccccc2CN(C)C/C=C/c2ccc(Cl)cc2)cc1 [KN-93 Phosphate],1.22,1.41,1.02,0.444,0.561,0.248,0.414,0.564,0.477,0.528,0.485,0.54,0.661,0.539,0.501,0.768,0.716,0.703
C[C@H](Nc1ncnc2nc[nH]c12)c1cc2cccc(Cl)c2c(=O)n1-c1ccccc1,1.03,1.45,1.1,1.22,1.26,1.15,1.29,1.29,1.03,0.976,0.905,0.95,0.977,1.06,1.01,0.985,0.971,0.958
CCCCCOC(=O)Nc1nc(=O)n([C@@H]2O[C@H](C)[C@@H](O)[C@H]2O)cc1F [Capecitabine (Xeloda)],1.21,1.08,1.15,1.35,1.1,1.26,1.12,0.993,0.947,1.03,0.983,0.954,1.09,1.04,1.03,1.06,1.02,1.07
Cn1c(=O)c(F)c(Nc2ccc(I)cc2F)c2c(=O)n(C[C@@H](O)CO)cnc21,0.783,0.672,0.444,0.64,0.618,0.674,0.854,0.603,0.47,1.06,1.05,0.888,1.09,1.11,0.836,1.16,0.952,0.821
CNC(=O)c1cc(Oc2ccc(NC(=O)Nc3ccc(Cl)c(C(F)(F)F)c3)cc2)ccn1 [Sorafenib Tosylate],1.05,1.11,0.968,1.15,0.823,0.637,1.05,1.11,0.604,0.923,0.983,0.919,0.943,0.935,0.917,0.948,0.924,0.906
Nc1cccc(S(=O)(=O)N2CCCN(S(=O)(=O)c3ccc4c(c3)OCCO4)CC2)c1,2.13,2.96,1.86,1.29,1.34,1.28,1.46,1.49,1.33,0.776,0.749,0.725,0.855,0.759,0.805,1.13,1.11,1.16
COc1ccc(F)c(F)c1C(=O)c1cnc(NC2CCN(S(C)(=O)=O)CC2)nc1N,1.04,0.568,0.136,1.05,0.755,0.276,1.23,0.761,0.185,0.993,1.07,1.02,1.05,1.05,0.953,1.08,1.02,0.931
Cc1ccc(NC(=O)c2ccc(CN3CCN(C)CC3)cc2)cc1Nc1nc(-c2cccnc2)cs1 [Masitinib (AB1010)],1.16 ± 0.027,1.32 ± 0.29,1.19 ± 0.05,1.05 ± 0.3,1.15 ± 0.024,1.01 ± 0.21,1.13 ± 0.029,1.22 ± 0.15,0.997 ± 0.22,0.973 ± 0.041,0.879 ± 0.064,0.799 ± 0.076,0.967 ± 0.047,0.902 ± 0.07,0.821 ± 0.028,0.965 ± 0.12,0.947 ± 0.042,0.837 ± 0.024
O=C(O)c1ccc(-c2c[nH]c3ncc(-c4ccccc4)cc23)cc1C1CCCC1,1.24,1.7,1.08,1.57,1.29,1.16,1.46,1.41,1.19,1,0.942,1.06,1.19,1.06,1.19,1.04,1,1.07
C[C@]12CC[C@@H]3c4ccc(O)cc4C[C@@H](CCCCCCCCC[S+]([O-])CCCC(F)(F)C(F)(F)F)[C@H]3[C@@H]1CC[C@@H]2O (stereo partly drawn) [Fulvestrant (Faslodex)],1.13,1.08,1.33,1.04,1.19,1.4,0.969,1.04,1.24,1.03,0.904,0.737,0.982,0.978,0.769,1.08,0.951,0.816
CNC(=O)c1ccc(Nc2ncc(C(F)(F)F)c(NCc3nccnc3N(C)S(C)(=O)=O)n2)cc1,2.14,3.18,0.762,1.42,1.3,0.283,1.37,1.4,0.308,0.831,0.72,0.661,0.883,0.711,0.608,1.23,0.954,0.848
CCOC(=O)c1cnc2ccc(-c3cncc(NS(=O)(=O)c4ccccc4)c3)cn12,1.1,0.838,0.0733,0.608,0.228,-0.0158,0.637,0.292,-0.0267,0.605,0.637,0.538,0.595,0.661,0.528,0.78,0.993,0.872
"CC[C@H](CO)Nc1nc(NCc2ccccc2)c2ncn(C(C)C)c2n1 [Roscovitine (Seliciclib,CYC202)]",1.38,1.84,1.37,1.56,1.32,1.09,1.36,1.68,0.494,1.06,1.02,0.945,0.97,0.934,0.937,0.964,1.03,0.612
CC(=O)[C@]1(O)Cc2c(O)c3c(c(O)c2[C@@H](O[C@H]2C[C@H](N)[C@H](O)[C@H](C)O2)C1)C(=O)c1ccccc1C3=O [Idarubicin HCl],-0.16,-0.199,-0.204,-0.402,-0.446,-0.471,-0.266,-0.299,-0.308,0.188,-0.0564,-0.01,0.181,-0.049,-0.0489,0.202,-0.0378,-0.0472
COc1cc2nccc(Oc3ccc(NC(=O)C4(C(=O)Nc5ccc(F)cc5)CC4)cc3)c2cc1OC [XL-184 (Cabozantinib)],1.15,1.05,0.637,1.45,1.15,0.637,1.19,1,0.606,1.09,0.974,0.753,1.09,0.991,0.846,1.04,0.982,0.87
Cc1c(Cn2c(C)nc3c(C(=O)O)cc(N4CCOCC4)cc32)cccc1C(F)(F)F,1.09,1.64,1.01,0.683,0.638,0.47,0.62,0.769,0.629,0.503,0.531,0.5,0.602,0.481,0.48,0.803,0.704,0.797

# Nothing new here: an excerpt of the list.
Structure (SMILES),cell viability ([1]; 0.05 µM),cell viability ([1]; 0.5 µM),cell viability ([1]; 5 µM),cell viability ([2]; 0.05 µM),cell viability ([2]; 0.5 µM),cell viability ([2]; 5 µM),cell viability ([3]; 0.05 µM),cell viability ([3]; 0.5 µM),cell viability ([3]; 5 µM),cell viability ([4]; 0.05 µM),cell viability ([4]; 0.5 µM),cell viability ([4]; 5 µM),cell viability ([5]; 0.05 µM),cell viability ([5]; 0.5 µM),cell viability ([5]; 5 µM),cell viability ([6]; 0.05 µM),cell viability ([6]; 0.5 µM),cell viability ([6]; 5 µM)
CCCCCOC(=O)Nc1nc(=O)n([C@@H]2O[C@H](C)[C@@H](O)[C@H]2O)cc1F [Capecitabine (Xeloda)],1.21,1.08,1.15,1.35,1.1,1.26,1.12,0.993,0.947,1.03,0.983,0.954,1.09,1.04,1.03,1.06,1.02,1.07
Cn1c(=O)c(F)c(Nc2ccc(I)cc2F)c2c(=O)n(C[C@@H](O)CO)cnc21,0.783,0.672,0.444,0.64,0.618,0.674,0.854,0.603,0.47,1.06,1.05,0.888,1.09,1.11,0.836,1.16,0.952,0.821
